Results as given in paper PMC10634230.
Construct, isoform or probe ends are uncertain for at least one entry. A weaker result is weaker than the reference pair of the same experiment.

Chains of the proteins cited; added tags and fusions are not shown. Residues count along the entry.
UniProt Q9NYK1, 27-839, stated change not applied: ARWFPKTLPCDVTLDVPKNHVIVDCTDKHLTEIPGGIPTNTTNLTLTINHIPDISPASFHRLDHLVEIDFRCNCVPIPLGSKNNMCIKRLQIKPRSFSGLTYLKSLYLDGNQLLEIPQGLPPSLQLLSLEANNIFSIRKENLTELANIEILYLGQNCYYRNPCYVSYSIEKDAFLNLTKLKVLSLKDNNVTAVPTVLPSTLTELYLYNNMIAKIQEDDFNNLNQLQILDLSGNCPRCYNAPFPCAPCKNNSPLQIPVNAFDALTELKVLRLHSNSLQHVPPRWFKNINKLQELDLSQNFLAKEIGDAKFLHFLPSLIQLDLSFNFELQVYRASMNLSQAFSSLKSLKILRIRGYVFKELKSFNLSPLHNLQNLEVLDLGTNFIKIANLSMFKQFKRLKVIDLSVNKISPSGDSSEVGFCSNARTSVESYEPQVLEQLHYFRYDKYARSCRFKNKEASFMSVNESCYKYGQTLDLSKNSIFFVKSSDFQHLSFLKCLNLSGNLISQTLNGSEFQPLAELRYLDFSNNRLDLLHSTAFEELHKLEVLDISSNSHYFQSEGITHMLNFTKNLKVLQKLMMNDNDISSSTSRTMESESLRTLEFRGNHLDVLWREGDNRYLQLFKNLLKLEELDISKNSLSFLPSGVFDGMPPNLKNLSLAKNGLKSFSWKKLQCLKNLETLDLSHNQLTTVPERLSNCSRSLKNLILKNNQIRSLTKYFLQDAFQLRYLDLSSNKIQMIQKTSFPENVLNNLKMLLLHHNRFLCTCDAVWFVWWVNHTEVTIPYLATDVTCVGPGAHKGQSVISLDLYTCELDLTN

Target: TLR7 Fc chimera (recombinant human TLR7) (Homo sapiens) (UniProt Q9NYK1)
Test: EMSA
Settings: EMSA: 100 ng RNA, 1 ug TLR7 in 20 uL, 30 min, 5% polyacrylamide gel; commercial protein; protein details: Fc chimera; label: 5' FAM

UUGAAGGACAGGUUAAGCU [RNA9.2a]
binding result: binds more weakly
